According to patent publication US20160368985A1:
Numbering of substitutions follows the chain as printed. No constants are given. Whether binding was seen depends on the method and setting. Some results given as binding are weak or reduced against the parent protein; the word gives no strength. One block for each binder: values may come before it.

Assays:
[1] = target: T1, soluble human FcRH5 protein fragment (human) (UniProt Q96RD9); assay: BIACORE
T1 sequence: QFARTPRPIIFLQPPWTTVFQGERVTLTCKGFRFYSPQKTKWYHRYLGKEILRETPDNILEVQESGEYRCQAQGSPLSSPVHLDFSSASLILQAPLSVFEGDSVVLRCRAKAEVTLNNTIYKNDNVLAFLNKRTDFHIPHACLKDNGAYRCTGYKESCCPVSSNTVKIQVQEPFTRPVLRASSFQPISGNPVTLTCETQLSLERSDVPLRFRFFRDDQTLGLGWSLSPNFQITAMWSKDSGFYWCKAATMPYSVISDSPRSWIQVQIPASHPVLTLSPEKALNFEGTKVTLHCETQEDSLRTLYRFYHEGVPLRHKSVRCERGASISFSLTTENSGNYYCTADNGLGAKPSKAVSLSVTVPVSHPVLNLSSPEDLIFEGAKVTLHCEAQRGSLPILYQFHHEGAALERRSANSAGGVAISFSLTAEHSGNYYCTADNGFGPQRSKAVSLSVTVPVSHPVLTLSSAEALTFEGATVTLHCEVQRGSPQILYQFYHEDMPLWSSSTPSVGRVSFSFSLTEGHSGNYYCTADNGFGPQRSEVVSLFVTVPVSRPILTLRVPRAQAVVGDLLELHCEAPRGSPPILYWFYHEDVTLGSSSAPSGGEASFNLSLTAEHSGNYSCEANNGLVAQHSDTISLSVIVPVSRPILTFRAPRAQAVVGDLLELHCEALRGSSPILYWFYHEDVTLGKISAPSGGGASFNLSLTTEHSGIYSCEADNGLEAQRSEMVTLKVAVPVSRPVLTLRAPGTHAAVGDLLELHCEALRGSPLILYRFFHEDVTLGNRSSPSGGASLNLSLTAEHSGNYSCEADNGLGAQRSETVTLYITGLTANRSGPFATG

[2] = target: T1, soluble human FcRH5 protein fragment (human); assay: BIACORE after AAPH or light stress
[3] = target: T1, soluble human FcRH5 protein fragment (human); assay: ELISA

binding [1]: binds
binding [2]: binds
B1: hu1G7.v85/38E4.v1 TDB (bispecific antibody, V domains shown)
VH 1: EVQLVESGPGLVKPSETLSLTCTVSGFSLTRFGVHWVRQPPGKGLEWLGVIWRGGSTDYNAAFVSRLTISKDNSKNQVSLKLSSVTAADTAVYYCSNHYYGSSDYALDNWGQGTLVTVSS
VL 1: DIQMTQSPSSLSASVGDRVTITCKASQDVRNLVVWFQQKPGKAPKLLIYSGSYRYSGVPSRFSGSGSGTDFTLTISSLQPEDFATYYCQQHYSPPYTFGQGTKVEIK
VH 2: EVQLVQSGAEVKKPGASVKVSCKASGFTFTSYYIHWVRQAPGQGLEWIGWIYPENDNTKYNEKFKDRVTITADTSTSTAYLELSSLRSEDTAVYYCARDGYSRYYFDYWGQGTLVTVSS
VL 2: DIVMTQSPDSLAVSLGERATINCKSSQSLLNSRTRKNYLAWYQQKPGQSPKLLIYWTSTRKSGVPDRFSGSGSGTDFTLTISSLQAEDVAVYYCKQSFILRTFGQGTKVEIK

binding [1]: binds
B2: hu1G7.v93/38E4.v1 TDB (bispecific antibody, V domains shown)
VH 1: B1 VH 1 with L29T, S103P
VL 1: B1 VL 1 with R30S
VH 2: B1 VH 2
VL 2: B1 VL 2

binding [3]: binds
B3: F(ab′)2 A (1G7.v85 Fab x 38E4.v1 Fab linked at the hinge Cys) (bispecific antibody, V domains shown)
VH 1: B1 VH 1
VL 1: B1 VL 1
VH 2: B1 VH 2
VL 2: B1 VL 2
modifications: hinge Cys crosslinked
